The list does not hold the whole screen: it is rich in T/C values a quarter to a half above the control, in often repeated tests (any T/C) and in doses without a T/C. Other doses and runs of a compound stand elsewhere. T/C gives the treated animals as a percentage of the vehicle group. Some doses have a count of surviving animals in place of a T/C: the source files T/C as zero there, which appears to mark a toxic dose or a test without result, not a measured value. Some doses without a T/C left all or most animals alive at the check, yet need not have been tolerated: the source hardly ever lists a survival T/C far under the control, and the zero likely stands for such cases as well. Survivors were counted at the toxicity check, usually on the fifth day, unless a day is given; later deaths do not show. Schedules are NCI's codes, read here as Q, the interval in days (D) or hours (H), X, the number of doses. Where survival is the endpoint, this PubChem deposit counts one and a half times the control or more as active, and values a quarter to a half above the control carry no call in these data; other NCI protocols may use other cut-offs. Some entries hold several experiments; their values stand side by side, smallest first. Residues, ends and D or L forms follow the SMILES beside them. *: point of attachment. Bn = c1ccc(C*)cc1; For = O=C*
System: BDF1 mice, P388 leukemia ip, median survival T/C
Assay: NCI In Vivo Anticancer Drug Screen. Data for tumor model P388 Leukemia (intraperitoneal) in B6D2F1 (BDF1) mice
Settings: T/C endpoint: median survival time, higher T/C = longer survival
How it was run: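 Transplantable tumour in mice; compound vs vehicle dosing; survival scored; ratio of treated to control reported.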

[1] = dose: 400.0 mg/kg/injection, schedule: Q04DX003 (ip), vehicle: saline with Tween-80
[2] = dose: 100.0 mg/kg/injection, schedule: Q01DX009 (ip), vehicle: Klucel (hydroxypropylcellulose) (HPC)
[3] = dose: 0.78 mg/kg/injection, schedule: Q01DX009 (ip), vehicle: saline
[4] = dose: 66.0 mg/kg/injection, schedule: Q04DX003 (ip), vehicle: saline with Tween-80

For `C=C(Cl)c1c(C)cc(C)c(CC#N)c1C`, the survivor count (dose: 50.0 mg/kg/injection, schedule: Q04DX003 (ip), vehicle: DMSO) was 4 of 6, the survivor count (dose: 100.0 mg/kg/injection, schedule: Q04DX003 (ip), vehicle: DMSO) was 4 of 6 and the survivor count (dose: 200.0 mg/kg/injection, schedule: Q04DX003 (ip), vehicle: DMSO) was 3 of 6.
In the case of `CC(=O)Nc1ccn(C2OC(COC(C)=O)C(OC(C)=O)C2OC(C)=O)c(=O)n1` (stereo not given), the T/C (dose: 200.0 mg/kg/injection, schedule: Q04DX003 (ip), vehicle: saline with Tween-80) is reported as 127 % of control, the T/C [1] is reported as 127 % of control and the T/C (dose: 600.0 mg/kg/injection, schedule: Q04DX003 (ip), vehicle: saline with Tween-80) is reported as 127 and 137 % of control.
In the case of `CC(Cc1ccccc1)C(N)=O` (stereo not given), the survivor count [1] is reported as 5 of 6.
With `O=c1ccc2nc3cc(Cl)ccc3sc-2c1` the survivor count [2] was 6 of 6 and the T/C (dose: 400.0 mg/kg/injection, schedule: Q01DX009 (ip), vehicle: Klucel (hydroxypropylcellulose) (HPC)) was 125 % of control.
`CC(C)CC(NC(=O)C(Cc1ccc(OCc2ccccc2)cc1)NC=O)C(=O)O` (stereo not given) (For-Tyr(Bn)-Leu-OH; configuration not given here) was tested, and the T/C (dose: 400.0 mg/kg/injection, schedule: Q01DX009 (ip), vehicle: saline with Tween-80) was 140 % of control, the survivor count (dose: 400.0 mg/kg/injection, schedule: Q01DX009 (ip), vehicle: sodium bicarbonate) was 2 of 6 and the survivor count (dose: 450.0 mg/kg/injection, schedule: Q01DX009 (ip), vehicle: saline with Tween-80) was 4 of 6. For the same compound, the survivor count (dose: 450.0 mg/kg/injection, schedule: Q01DX009 (ip), vehicle: sodium bicarbonate) was 1 of 6.
With `Br/C(=N\Nc1nn[nH]n1)c1ccncc1` the survivor count (dose: 400.0 mg/kg/injection, schedule: Q01DX009 (ip), vehicle: saline) was 1 of 6.
In the case of `Nc1ccc2nc3ccccc3c(NCCCCCCCCNc3c4ccccc4nc4ccc(N)cc34)c2c1`, the T/C (dose: 0.63 mg/kg/injection, schedule: Q01DX009 (ip), vehicle: water) is reported as 149 % of control, the T/C (dose: 1.25 mg/kg/injection, schedule: Q01DX009 (ip), vehicle: water) is reported as 149 % of control and the T/C (dose: 5.0 mg/kg/injection, schedule: Q01DX009 (ip), vehicle: water) is reported as 135 % of control.
`CCC(=O)N(C)[C@@H](C)C(=O)O[C@H]1CC(=O)N(C)c2cc(cc(OC)c2Cl)C/C(C)=C/C=C[C@@H](OC)[C@@]2(O)C[C@H](OC(=O)N2)[C@@H](C)[C@@H]2O[C@@]12C` was tested, and the T/C (dose: 0.1 micrograms/kg/injection, schedule: Q01DX009 (ip), vehicle: saline) was 137 % of control, the T/C (dose: 0.4 micrograms/kg/injection, schedule: Q01DX009 (ip), vehicle: saline) was 137 % of control and the T/C (dose: 0.8 micrograms/kg/injection, schedule: Q01DX009 (ip), vehicle: saline) was 145 % of control. The T/C (dose: 6.2 micrograms/kg/injection, schedule: Q01DX009 (ip), vehicle: saline) was 125 % of control, the survivor count (dose: 25.0 micrograms/kg/injection, schedule: Q01DX009 (ip), vehicle: saline) was 6 of 6 and the survivor count (dose: 50.0 micrograms/kg/injection, schedule: Q01DX009 (ip), vehicle: saline) was 0 of 6.
`CC(=O)OC1C(CO)OC2C1Oc1nc(=N)c(F)cn12` (stereo not given) was tested, and the T/C (dose: 0.39 mg/kg/injection, schedule: Q01DX009 (ip), vehicle: saline) was 130 % of control, the T/C [3] was 141 % of control and the survivor count (dose: 6.25 mg/kg/injection, schedule: Q01DX009 (ip), vehicle: saline) was 6 of 6. The survivor count (dose: 12.5 mg/kg/injection, schedule: Q01DX009 (ip), vehicle: saline) was 6 of 6, the survivor count (dose: 25.0 mg/kg/injection, schedule: Q01DX009 (ip), vehicle: saline) was 6 of 6 and the survivor count (dose: 50.0 mg/kg/injection, schedule: Q01DX009 (ip), vehicle: saline) was 6 of 6.
In the case of `BrCCC[P+](c1ccccc1)(c1ccccc1)c1ccccc1`, the T/C (dose: 3.13 mg/kg/injection, schedule: Q01DX009 (ip), vehicle: saline with Tween-80) is reported as 131 % of control, the T/C (dose: 6.25 mg/kg/injection, schedule: Q01DX009 (ip), vehicle: saline with Tween-80) is reported as 145 % of control and the T/C (dose: 7.5 mg/kg/injection, schedule: Q01DX010 (ip), vehicle: saline) is reported as 127 % of control. For the same compound, the survivor count (dose: 30.0 mg/kg/injection, schedule: Q01DX009 (ip), vehicle: saline) was 5 of 6, the survivor count (dose: 30.0 mg/kg/injection, schedule: Q01DX010 (ip), vehicle: saline) was 6 of 6 and the survivor count (dose: 60.0 mg/kg/injection, schedule: Q01DX010 (ip), vehicle: saline) was 0 of 6.
In the case of `COc1ccc(SC2=C(N(C)C(C)=O)C(=O)c3ccccc3C2=O)cc1`, the survivor count (dose: 15.0 mg/kg/injection, schedule: Q01DX009 (ip), vehicle: Klucel (hydroxypropylcellulose) (HPC)) is reported as 3 of 6, the survivor count (dose: 25.0 mg/kg/injection, schedule: Q04DX003 (ip), vehicle: Klucel (hydroxypropylcellulose) (HPC)) is reported as 4 of 6 and the survivor count (dose: 30.0 mg/kg/injection, schedule: Q01DX009 (ip), vehicle: Klucel (hydroxypropylcellulose) (HPC)) is reported as 6 of 6.
`Cn1c(=O)c2nc(-c3ccc(Cl)c(Cl)c3)c(-c3ccc(Cl)c(Cl)c3)nc2n(C)c1=O` was tested, and the T/C (dose: 12.5 mg/kg/injection, schedule: Q01DX001 (ip), vehicle: saline with Tween-80) was 127 % of control and the survivor count (dose: 200.0 mg/kg/injection, schedule: Q01DX001 (ip), vehicle: saline with Tween-80) was 6 of 6.
For `CC12CCC(Cl)CC1=CCC1C2CCC2(C)C1CCCN2CCCl` (stereo not given), the survivor count (dose: 50.0 mg/kg/injection, schedule: Q01DX001 (ip), vehicle: saline with Tween-80) was 1 of 6, the survivor count (dose: 50.0 mg/kg/injection, schedule: Q01DX001 (ip), vehicle: saline) was 2 of 6 and the survivor count (dose: 100.0 mg/kg/injection, schedule: Q01DX001 (ip), vehicle: saline) was 0 of 6.
In the case of `OCC1OC(n2cnc3c2NC=NC[C@H]3O)C(O)C1O` (stereo not given in full), the survivor count [3] is reported as 3 of 5, the survivor count (dose: 1.56 mg/kg/injection, schedule: Q01DX009 (ip), vehicle: saline) is reported as 3 of 5 and the survivor count (dose: 3.13 mg/kg/injection, schedule: Q01DX009 (ip), vehicle: saline) is reported as 2 of 5.
In the case of `O=C(O)CC(=O)N=c1snc(Nc2ccccc2)n1-c1ccccc1`, the survivor count (dose: 50.0 mg/kg/injection, schedule: Q01DX009 (ip), vehicle: Klucel (hydroxypropylcellulose) (HPC)) is reported as 6 of 6, the survivor count [2] is reported as 6 of 6 and the survivor count (dose: 200.0 mg/kg/injection, schedule: Q01DX009 (ip), vehicle: Klucel (hydroxypropylcellulose) (HPC)) is reported as 6 of 6.
`C=CCSc1nc(N)nc2nc[nH]c12` was tested, and the survivor count (dose: 200.0 mg/kg/injection, schedule: Q01DX009 (ip), vehicle: saline sonified) was 4 of 6 and the survivor count (dose: 400.0 mg/kg/injection, schedule: Q01DX009 (ip), vehicle: saline sonified) was 0 of 6.
In the case of `CCOC(=O)C(Cc1ccc(N(CCCl)CCCl)cc1)NC=O` (stereo not given), the survivor count [4] is reported as 6 of 6 and the T/C (dose: 1500.0 micrograms/kg/injection, schedule: Q04DX003 (ip), vehicle: saline with Tween-80) is reported as 130 % of control.
For `CC[NH-].CC[NH-].[Br][Pt+2][Br]`, the T/C (dose: 13.0 mg/kg/injection, schedule: Q04DX003 (ip), vehicle: other) was 129 % of control and the survivor count (dose: 400.0 mg/kg/injection, schedule: Q04DX003 (ip), vehicle: other) was 4 of 6.
For `ONc1ncnc2nc[nH]c12`, the T/C [4] was 127 % of control, the T/C (dose: 100.0 mg/kg/injection, schedule: Q04DX003 (ip), vehicle: saline with Tween-80) was 140 % of control and the T/C (dose: 150.0 mg/kg/injection, schedule: Q04DX003 (ip), vehicle: saline with Tween-80) was 145 % of control.
With `CC(=O)CC(C)=O.CC(=O)CC(C)=O.C[CH2][Sn][CH2]C` the T/C (dose: 25.0 mg/kg/injection, schedule: Q01DX001 (ip), vehicle: Klucel (hydroxypropylcellulose) (HPC)) was 130 % of control and the survivor count (dose: 50.0 mg/kg/injection, schedule: Q01DX001 (ip), vehicle: Klucel (hydroxypropylcellulose) (HPC)) was 0 of 6.

Reference: PubChem BioAssay AID328 (DTP/NCI, 2004)
